From PMC7737610
These are yes or no findings as the source states them, for the method shown. In cells and extracts the contact can be indirect. A yes stands for co-enrichment or nearness to the bait. Other partners may have been found. Tags and fused reporters may be left off the sequences shown.

Sequences of proteins named here, by UniProt entry; tags and fusion partners are left off.
UniProt P10155: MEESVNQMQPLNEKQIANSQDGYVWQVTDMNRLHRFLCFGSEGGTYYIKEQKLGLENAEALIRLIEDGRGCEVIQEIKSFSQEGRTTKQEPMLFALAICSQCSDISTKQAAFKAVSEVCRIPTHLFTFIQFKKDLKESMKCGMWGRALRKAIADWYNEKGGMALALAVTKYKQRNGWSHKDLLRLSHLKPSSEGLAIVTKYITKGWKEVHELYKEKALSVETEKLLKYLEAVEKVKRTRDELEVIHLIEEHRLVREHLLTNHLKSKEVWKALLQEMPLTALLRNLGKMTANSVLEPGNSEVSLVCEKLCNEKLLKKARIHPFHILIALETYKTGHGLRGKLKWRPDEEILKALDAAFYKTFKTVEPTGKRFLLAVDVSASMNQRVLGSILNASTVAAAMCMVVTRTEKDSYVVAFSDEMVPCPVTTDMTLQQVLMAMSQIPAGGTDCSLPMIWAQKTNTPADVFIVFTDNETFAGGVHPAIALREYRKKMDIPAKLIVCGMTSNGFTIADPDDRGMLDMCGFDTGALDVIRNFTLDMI

Molecular target: T1, tf-NBR1 (tandem-fluorescent RFP-GFP fusion of NBR1) (UniProt Q14596)
T1 sequence: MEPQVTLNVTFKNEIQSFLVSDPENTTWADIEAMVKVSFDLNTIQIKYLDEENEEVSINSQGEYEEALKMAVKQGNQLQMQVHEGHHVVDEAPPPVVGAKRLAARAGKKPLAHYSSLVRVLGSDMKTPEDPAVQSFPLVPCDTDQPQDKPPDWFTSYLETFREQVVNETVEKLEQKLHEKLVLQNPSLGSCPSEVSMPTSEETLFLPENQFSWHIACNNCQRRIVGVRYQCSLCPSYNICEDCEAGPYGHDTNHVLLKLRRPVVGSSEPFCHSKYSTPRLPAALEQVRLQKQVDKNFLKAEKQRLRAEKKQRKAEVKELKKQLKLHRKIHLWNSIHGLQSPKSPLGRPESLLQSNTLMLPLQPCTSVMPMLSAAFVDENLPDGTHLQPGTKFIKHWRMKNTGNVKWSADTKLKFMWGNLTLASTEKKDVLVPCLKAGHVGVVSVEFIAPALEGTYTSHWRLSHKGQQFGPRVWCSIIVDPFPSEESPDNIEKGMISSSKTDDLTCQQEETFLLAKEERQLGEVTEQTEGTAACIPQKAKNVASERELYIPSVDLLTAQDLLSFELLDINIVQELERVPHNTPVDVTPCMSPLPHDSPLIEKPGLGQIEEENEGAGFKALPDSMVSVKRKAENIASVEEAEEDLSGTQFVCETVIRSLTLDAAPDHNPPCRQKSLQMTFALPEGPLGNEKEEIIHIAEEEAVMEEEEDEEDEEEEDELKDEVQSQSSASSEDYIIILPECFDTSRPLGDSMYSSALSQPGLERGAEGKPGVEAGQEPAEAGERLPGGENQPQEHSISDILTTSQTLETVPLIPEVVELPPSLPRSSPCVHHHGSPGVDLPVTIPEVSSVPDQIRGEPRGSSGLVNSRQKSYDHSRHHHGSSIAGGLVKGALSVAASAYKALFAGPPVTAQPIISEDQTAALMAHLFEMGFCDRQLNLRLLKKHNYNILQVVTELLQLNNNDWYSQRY
Assay: affinity purification with mass spectrometry; tf-NBR1 co-immunoprecipitate analysed by label-free quantitative LC-MS/MS (iBAQ), fold-enrichment

binding | Substance
binds | TAX1BP1, endogenous (from UniProt Q86VP1-1 1-789)
binds | TROVE2, endogenous (from UniProt P10155 1-538)
